From patent US4470926A (priority 1980, dated 1984)

Test: general procedure: solution-phase peptide synthesis; mixed anhydride (stepwise); dicyclohexylcarbodiimide/1-hydroxybenzotriazole (fra)
Conditions: coupling step

Substance | step yield
Ddz-(7-28)-OBzl | 67%
Ddz-Ala-Ala-Val-Asp(OBu^t)-OBzl | 70%
Ddz-Asp(OBu^t)-Ala-Ala-Val-Asp(OBu^t)-OBzl | 85%
Ddz-Asp(OBu^t)-Leu-Lys(Z)-Glu(OBu^t)-Lys(Z)-OMe | 84%
Ddz-Glu(OBu^t)-Ala-Glu(OBu^t)-Asn(Mbh)-IBzl | 78%
Ddz-Glu(OBu^t)-Val-Val-Glu(OBu^t)-OMe | 94%
Ddz-Leu-Lys(Z)-Glu(OBu^t)-Lys(Z)-OMe | 77%
Ddz-Lys(Z)-Asp(OBu^6)-Leu-Lys(Z)-Glu-(OBu^t)-Lys(Z)-OMe | about 100%
Ddz-Lys(Z)-Glu(OBu^t)-Val-Val-Glu(OBu^t)-OMe | 99%
Ddz-Ser(Bu^t)-Glu(OBu^t)-Ile-Thr(Bu^t)-OBzl | 83%
Ddz-Ser(Bu^t)-Ser(Bu^t)-Glu(OBu^t)-Ile-Thr(Bu^t)-OBzl | 78%
Ddz-Thr(Bu^t)-Lys(Z)-Asp(OBu^t)-Leu-Lys(Z)-Glu(OBu^t)-Lys(Z)-OMe | 56%
Ddz-Thr(Bu^t)-Ser(Bu^t)-Ser(Bu^t)-Glu-(OBu^t)-Ile-Thr(Bu^t)-OBzl | 97%

Same assay, conditions: late stage modification step

Substance | step yield
Ddz-(7-12)-OH | 57%
Ddz-(20-24)-OH | 76%
